Experimental data: PubChem BioAssay AID1508597 (Cure First, 2020)
Assay: 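Genes whose silencing sensitises or protects ovarian cancer cells against rucaparib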 (primary screen). Cells: human ovarian carcinoma lines grown from tumours: OCI-P5x (papillary serous) and OCI-C5x (clear cell). Knock-down reagent: siRNA pool against human genes, 1.25 pmol siRNA per well. Time to read-out: 72 h or 96 h, depending on the cell culture. Conditions: rucaparib 20 µM (about IC30) or vehicle, present until read-out. Read-out: 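ATP luminescence measured at 72 or 96 h according to the culture, then normalised and expressed as percent viability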. Direction: viability, normalised: higher = more viable cells remaining. Rule for the call: 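Active when normalised viability falls below 80 percent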. Calls: active = viability under 80%; inactive = viability 80% or more.
This is a random part of about 2,100 reagents. 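Calls flag viability under 80% in either arm, not effects specific to rucaparib; the reference for percent is not stated.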 A number with no mark means an inactive call. Not given: the 100% reference.

| gene knocked down | rucaparib or vehicle | cell line | technical replicate | viability, normalised (%) |
| --- | --- | --- | --- | --- |
| RPS9 | Rucaparib | OCI-C5x (clear cell) | 1 | 46.7 (active) |
| RPS9 | Rucaparib | OCI-C5x (clear cell) | 2 | 51.8 (active) |
| RPS9 | Rucaparib | OCI-C5x (clear cell) | 3 | 54 (active) |
| RPS9 | Rucaparib | OCI-P5x (serous) | 1 | 48.9 (active) |
| RPS9 | Rucaparib | OCI-P5x (serous) | 2 | 69.8 (active) |
| RPS9 | Rucaparib | OCI-P5x (serous) | 3 | 65.9 (active) |
| RPS9 | Vehicle | OCI-C5x (clear cell) | 1 | 25.2 (active) |
| RPS9 | Vehicle | OCI-C5x (clear cell) | 2 | 37.9 (active) |
| RPS9 | Vehicle | OCI-C5x (clear cell) | 3 | 35.7 (active) |
| RPS9 | Vehicle | OCI-P5x (serous) | 1 | 45.2 (active) |
| RPS9 | Vehicle | OCI-P5x (serous) | 2 | 43.5 (active) |
| RPS9 | Vehicle | OCI-P5x (serous) | 3 | 64.6 (active) |
| ULK4 | Rucaparib | OCI-C5x (clear cell) | 1 | 47.3 (active) |
| ULK4 | Rucaparib | OCI-C5x (clear cell) | 2 | 50.9 (active) |
| ULK4 | Rucaparib | OCI-C5x (clear cell) | 3 | 32.2 (active) |
| ULK4 | Rucaparib | OCI-P5x (serous) | 1 | 67 (active) |
| ULK4 | Rucaparib | OCI-P5x (serous) | 2 | 84.7 |
| ULK4 | Rucaparib | OCI-P5x (serous) | 3 | 69.5 (active) |
| ULK4 | Vehicle | OCI-C5x (clear cell) | 1 | 47.2 (active) |
| ULK4 | Vehicle | OCI-C5x (clear cell) | 2 | 48.6 (active) |
| ULK4 | Vehicle | OCI-C5x (clear cell) | 3 | 42.7 (active) |
| ULK4 | Vehicle | OCI-P5x (serous) | 1 | 71.2 (active) |
| ULK4 | Vehicle | OCI-P5x (serous) | 2 | 63.3 (active) |
| ULK4 | Vehicle | OCI-P5x (serous) | 3 | 72.7 (active) |
| BANP | Rucaparib | OCI-C5x (clear cell) | 1 | 59.8 (active) |
| BANP | Rucaparib | OCI-C5x (clear cell) | 2 | 40.9 (active) |
| BANP | Rucaparib | OCI-C5x (clear cell) | 3 | 46.1 (active) |
| BANP | Rucaparib | OCI-P5x (serous) | 1 | 77.1 (active) |
| BANP | Rucaparib | OCI-P5x (serous) | 2 | 63.6 (active) |
| BANP | Rucaparib | OCI-P5x (serous) | 3 | 90.3 |
| BANP | Vehicle | OCI-C5x (clear cell) | 1 | 58.7 (active) |
| BANP | Vehicle | OCI-C5x (clear cell) | 2 | 77.4 (active) |
| BANP | Vehicle | OCI-C5x (clear cell) | 3 | 43.5 (active) |
| BANP | Vehicle | OCI-P5x (serous) | 1 | 90.1 |
| BANP | Vehicle | OCI-P5x (serous) | 2 | 108 |
| BANP | Vehicle | OCI-P5x (serous) | 3 | 74.9 (active) |

A few values from above:
RPS9, rucaparib or vehicle Rucaparib, cell line OCI-C5x (clear cell), technical replicate 1, viability, normalised (%): 46.7 (active)
Value of BANP, rucaparib or vehicle Rucaparib, cell line OCI-P5x (serous), technical replicate 2 in “viability, normalised (%)”: 63.6 (active)
Entry of RPS9, rucaparib or vehicle Vehicle, cell line OCI-C5x (clear cell), technical replicate 1 under “viability, normalised (%)”: 25.2 (active)
Under “viability, normalised (%)”, ULK4, rucaparib or vehicle Rucaparib, cell line OCI-P5x (serous), technical replicate 1 is entered as 67 (active)
Result of RPS9, rucaparib or vehicle Rucaparib, cell line OCI-P5x (serous), technical replicate 3 under “viability, normalised (%)”: 65.9 (active)
Under “viability, normalised (%)”, BANP, rucaparib or vehicle Vehicle, cell line OCI-C5x (clear cell), technical replicate 3 shows 43.5 (active)

Additional records follow.
| gene knocked down | rucaparib or vehicle | cell line | technical replicate | viability, normalised (%) |
| --- | --- | --- | --- | --- |
| CDK19 | Rucaparib | OCI-C5x (clear cell) | 1 | 41.7 (active) |
| CDK19 | Rucaparib | OCI-C5x (clear cell) | 2 | 43.2 (active) |
| CDK19 | Rucaparib | OCI-C5x (clear cell) | 3 | 40.7 (active) |
| CDK19 | Rucaparib | OCI-P5x (serous) | 1 | 58.4 (active) |
| CDK19 | Rucaparib | OCI-P5x (serous) | 2 | 58 (active) |
| CDK19 | Rucaparib | OCI-P5x (serous) | 3 | 63.3 (active) |
| CDK19 | Vehicle | OCI-C5x (clear cell) | 1 | 52.9 (active) |
| CDK19 | Vehicle | OCI-C5x (clear cell) | 2 | 46.2 (active) |
| CDK19 | Vehicle | OCI-C5x (clear cell) | 3 | 48.2 (active) |
| CDK19 | Vehicle | OCI-P5x (serous) | 1 | 41 (active) |
| CDK19 | Vehicle | OCI-P5x (serous) | 2 | 44.3 (active) |
| CDK19 | Vehicle | OCI-P5x (serous) | 3 | 51.1 (active) |
| MED10 | Rucaparib | OCI-C5x (clear cell) | 1 | 61.3 (active) |
| MED10 | Rucaparib | OCI-C5x (clear cell) | 2 | 54.4 (active) |
| MED10 | Rucaparib | OCI-C5x (clear cell) | 3 | 58 (active) |
| MED10 | Rucaparib | OCI-P5x (serous) | 1 | 71.2 (active) |
| MED10 | Rucaparib | OCI-P5x (serous) | 2 | 69.8 (active) |
| MED10 | Rucaparib | OCI-P5x (serous) | 3 | 80.1 |
| MED10 | Vehicle | OCI-C5x (clear cell) | 1 | 58.2 (active) |
| MED10 | Vehicle | OCI-C5x (clear cell) | 2 | 57.8 (active) |
| MED10 | Vehicle | OCI-C5x (clear cell) | 3 | 62.5 (active) |
| MED10 | Vehicle | OCI-P5x (serous) | 1 | 84.4 |
| MED10 | Vehicle | OCI-P5x (serous) | 2 | 96.8 |
| MED10 | Vehicle | OCI-P5x (serous) | 3 | 91.5 |
